From US20260209320A1
Results are given in words; binding and its absence hold for the method and conditions named.

B1: ATL_0006374 (antibody, V domains shown)
VH: EVQLVESGGGLVKPGGSLRLSCAASGFTFNKAWMSWVRQAPGKGLEWVGRIKSGIDAGTTDYAAPVKGRFTISRDDSKNTLYLQMNSLKTEDTAVYWCVPPPYYYYYGLDVWGQGTTVTVSS
VL: QSALTQPRSVSGSPGQSVTISCTGTSSDVGSYNLVSWYQQHPGKAPKLMIYEVNKRPSGVPDRFSGSKSGATASLTISGLQAEDEADYYCVSYGGTENVFGTGTKVTVL
B2: ATL_0006375 (antibody, V domains shown)
VH: EVQLVESGGGLVKPGGSLRLSCAASGFTFNKAWMSWVRQAPGKGLEWVGRIKSGIDAGTTDYAAPVKGRFTISRDDSKNTLYLQMNSLKTEDTAVYYCVPPPYYYYYGLDVWGQGTTVTVSS
VL: QSALTQPRSVSGSPGQSVTISCTGTSSDVGSYNLVSWYQQHPGKAPKLMIYEVNKRPSGVPDRFSGSKSGATASLTISGLQAEDEADYYCVSYGGTENVFGTGTKVTVL
B3: ATL_0006376 (antibody, V domains shown)
VH: EVQLVESGGGLVKPGGSLRLSCAASGFTFNKAWMSWVRQAPGKGLEWVGRIKSGIDAGTTDYAAPVKGRFTISRDDSKNTLYLQMNSLKTEDTAVYYCVPPPFYYYYGLDVWGQGTTVTVSS
VL: QSALTQPRSVSGSPGQSVTISCTGTSSDVGSYNLVSWYQQHPGKAPKLMIYEVNKRPSGVPDRFSGSKSGATASLTISGLQAEDEADYYCVSYGGTENVFGTGTKVTVL
B4: ATL_0006377 (antibody, V domains shown)
VH: EVQLVESGGGLVKPGGSLRLSCAASGFTFNKAWMSWVRQAPGKGLEWVGRIKSGIDAGTTDYAAPVKGRFTISRDDSKNTLYLQMNSLKTEDTAVYYCVPSPYYYYYGLDVWGQGTTVTVSS
VL: QSALTQPRSVSGSPGQSVTISCTGTSSDVGSYNLVSWYQQHPGKAPKLMIYEVNKRPSGVPDRFSGSKSGATASLTISGLQAEDEADYYCVSYAGTANVFGTGTKVTVL
B5: ATL_0006378 (antibody, V domains shown)
VH: EVQLVESGGGLVKPGGSLRLSCAASGFTFNKAWMSWVRQAPGKGLEWVGRIKSGIDAGTTDYAAPVKGRFTISRDDSKNTLYLQMNSLKTEDTAVYYCVPSPYYYYYGLDVWGQGTTVTVSS
VL: QSALTQPRSVSGSPGQSVTISCTGTSSDVGSYNLVSWYQQHPGKAPKLMIYEVNKRPSGVPDRFSGSKSGATASLTISGLQAEDEADYYCVSYGGTENVFGTGTKVTVL
B6: ATL_0006183 (antibody, V domains shown)
VH: EVQLVESGGGLVKPGGSLRLSCAASGFTFNKAWMSWVRQAPGKGLEWVGRIKSGIDAGTTDYAAPVKGRFTISRDDSKNTLYLQMNSLKTEDTAVYYCTPPPYYYYGLDVWGQGTTVTVSS
VL: QSALTQPRSVSGSPGQSVTISCTGTSSDVGSYNLVSWYQQHPGKAPKLMIYEVNKRPSGVPDRFSGSKSGATASLTISGLQAEDEADYYCGSYAGTANVFGTGTKVTVL
B7: ATL_0006184 (antibody, V domains shown)
VH: EVQLVESGGGLVKPGGSLRLSCAASGFTFNKAWMSWVRQAPGKGLEWVGRIKSGIDAGTTDYAAPVKGRFTISRDDSKATLYLQMNSLKTEDTAVYYCTPPPYYYYGLDVWGQGTTVTVSS
VL: QSALTQPASVSGSPGQSITISCTGTSSDVGGYKLVSWYQQHPGRAPKLMIYEVSKRPSGVSSRFSGSKSGSTASLTISGLQAEDEADYYCSSYAGSSVVFGGGTKLTVL
B8: ATL_0006185 (antibody, V domains shown)
VH: EVQLVESGGGLVKPGGSLRLSCAASGFTFNKAWMSWVRQAPGKGLEWVGRIKSGIDAGTTDYAAPVKGRFTISRDDSKNTLYLQMNSLKTEDTAVYYCTPPPYYYYGLNVWGQGTTVTVSS
VL: QSALTQPRSVSGSPGQSVTISCTGTSSDVGSYNLVSWYQQHPGKAPKLMIYEVNKRPSGVPDRFSGSKSGATASLTISGLQAEDEADYYCGSYAGTANVFGTGTKVTVL
B9: ATL_0006186 (antibody, V domains shown)
VH: EVQLVESGGGLVKPGGSLRLSCAASGFTFNKAWMSWVRQAPGKGLEWVGRIKSGIDAGTTDYAAPVKGRFTISRDDSKATLYLQMNSLKTEDTAVYYCTPPPYYYYGLNVWGQGTTVTVSS
VL: QSALTQPASVSGSPGQSITISCTGTSSDVGGYKLVSWYQQHPGRAPKLMIYEVSKRPSGVSSRFSGSKSGSTASLTISGLQAEDEADYYCSSYAGSSVVFGGGTKLTVL

molecular target: lysozyme; assay: lysozyme ELISA (antigen control of the sandwich ELISA)

Row | Binder | binding
1 | B1 | no binding
2 | B2 | no binding
3 | B3 | no binding
4 | B4 | no binding
5 | B5 | no binding
6 | B6 | no binding
7 | B7 | no binding
8 | B8 | no binding
9 | B9 | no binding
